For test [1], the target named is Brr2p (yeast two-hybrid fusion) (S. cerevisiae) (UniProt P32639). Briefly: two-hybrid; yeast two-hybrid assay of Cwc24p with spliceosome proteins; data not shown.
The target in test [2] is TAP-Brr2p (S. cerevisiae) (UniProt P32639). The test is described as follows: pull-down; TAP-Brr2p from yeast extract immobilised on IgG-sepharose (2 h, 4°C), washed 4 times with AGK + 400 mM KCl, incubated with purified His-Cwc24 for 2 h at 4°C, washed 3 times with AGK (10 mM HEPES pH 7.9, 1.5 mM MgCl2, 200 mM KCl, 10% glycerol, 0.5 mM DTT); western blot with anti-his antibody; only the binder purified. (A western blot detects proteins with antibodies after separation by electrophoresis.)

By UniProt entry, the sequences of proteins in these tests, tags left out.
UniProt P32639: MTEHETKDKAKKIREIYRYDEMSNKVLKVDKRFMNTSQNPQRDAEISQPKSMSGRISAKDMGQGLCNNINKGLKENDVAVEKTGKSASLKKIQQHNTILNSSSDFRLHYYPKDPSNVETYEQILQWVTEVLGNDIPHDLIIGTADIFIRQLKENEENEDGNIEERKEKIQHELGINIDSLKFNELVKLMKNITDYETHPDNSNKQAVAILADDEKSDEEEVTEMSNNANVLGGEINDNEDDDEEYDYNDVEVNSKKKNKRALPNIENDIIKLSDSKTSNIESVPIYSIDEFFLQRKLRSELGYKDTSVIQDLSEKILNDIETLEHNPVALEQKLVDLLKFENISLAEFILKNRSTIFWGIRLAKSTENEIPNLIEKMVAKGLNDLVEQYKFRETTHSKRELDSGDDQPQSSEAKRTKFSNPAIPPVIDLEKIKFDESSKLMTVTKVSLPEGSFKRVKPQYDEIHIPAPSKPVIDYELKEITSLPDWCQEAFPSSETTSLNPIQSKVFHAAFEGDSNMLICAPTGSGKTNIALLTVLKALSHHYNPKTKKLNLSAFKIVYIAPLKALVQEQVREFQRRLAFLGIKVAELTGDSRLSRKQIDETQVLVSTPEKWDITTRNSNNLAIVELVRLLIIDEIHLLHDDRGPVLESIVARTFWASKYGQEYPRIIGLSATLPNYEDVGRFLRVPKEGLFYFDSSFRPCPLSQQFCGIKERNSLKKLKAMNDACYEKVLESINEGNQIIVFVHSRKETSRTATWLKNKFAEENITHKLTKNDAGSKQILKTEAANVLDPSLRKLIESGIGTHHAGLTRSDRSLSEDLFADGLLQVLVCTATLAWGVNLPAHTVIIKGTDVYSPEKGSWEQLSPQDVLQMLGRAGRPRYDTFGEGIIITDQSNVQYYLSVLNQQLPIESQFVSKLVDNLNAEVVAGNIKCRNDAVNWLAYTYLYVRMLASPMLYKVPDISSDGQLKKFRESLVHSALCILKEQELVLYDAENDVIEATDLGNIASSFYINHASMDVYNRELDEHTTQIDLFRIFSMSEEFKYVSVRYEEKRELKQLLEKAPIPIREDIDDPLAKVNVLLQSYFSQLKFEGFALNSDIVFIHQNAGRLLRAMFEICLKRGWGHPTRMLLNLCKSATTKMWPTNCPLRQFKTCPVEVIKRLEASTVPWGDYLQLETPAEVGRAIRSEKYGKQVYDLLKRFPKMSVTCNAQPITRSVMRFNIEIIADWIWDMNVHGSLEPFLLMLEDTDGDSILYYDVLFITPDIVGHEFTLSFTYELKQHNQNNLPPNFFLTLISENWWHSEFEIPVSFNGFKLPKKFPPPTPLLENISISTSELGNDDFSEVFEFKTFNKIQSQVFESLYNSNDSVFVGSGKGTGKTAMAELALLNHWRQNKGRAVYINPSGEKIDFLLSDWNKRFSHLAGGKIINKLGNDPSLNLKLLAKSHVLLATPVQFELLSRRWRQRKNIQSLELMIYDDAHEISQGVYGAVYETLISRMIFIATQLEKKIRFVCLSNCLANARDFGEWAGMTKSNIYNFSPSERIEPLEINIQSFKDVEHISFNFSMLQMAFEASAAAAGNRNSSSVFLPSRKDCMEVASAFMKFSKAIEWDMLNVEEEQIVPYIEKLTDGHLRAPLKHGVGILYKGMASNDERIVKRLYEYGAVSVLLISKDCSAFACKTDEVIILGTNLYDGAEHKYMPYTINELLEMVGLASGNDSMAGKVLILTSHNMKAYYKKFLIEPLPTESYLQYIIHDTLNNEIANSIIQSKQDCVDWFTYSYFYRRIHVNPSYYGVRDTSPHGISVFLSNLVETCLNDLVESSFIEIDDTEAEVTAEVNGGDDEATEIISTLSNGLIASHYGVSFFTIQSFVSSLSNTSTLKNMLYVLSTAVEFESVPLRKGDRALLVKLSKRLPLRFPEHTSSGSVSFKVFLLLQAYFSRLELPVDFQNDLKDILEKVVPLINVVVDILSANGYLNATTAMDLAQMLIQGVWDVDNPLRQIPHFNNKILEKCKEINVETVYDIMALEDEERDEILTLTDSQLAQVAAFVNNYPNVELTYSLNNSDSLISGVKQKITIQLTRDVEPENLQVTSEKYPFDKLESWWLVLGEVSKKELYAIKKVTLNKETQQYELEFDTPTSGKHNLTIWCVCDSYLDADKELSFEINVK

These are yes or no findings as the source states them, for the method shown. For some assays here: Binding seen in cells or lysates may run through a third protein. Some entries that bind do so weakly or less than the wild type. Tags and fused reporters may be left off the sequences shown.

B1: Cwc24p (yeast two-hybrid fusion) (protein, UniProt P53769 1-259)
chain: MFRKRLVNKSSSDEKNQKKRQKINFSEEKLVASDEEKGSSDLMSLAKSGNSRTLQLSHENEGKLQKKGEDLDKYTLTVNDDSTKEDLLNFERKELAEKAKKRRPSDDNELVLNMSGKNKRLTKQINQPTNIRTTVLMDFQPDVCKDYKQTGYCGYGDSCKFLHSRDDFKTGWKLNQEWNADKEDSKAVTLDLEKIPFKCTLCKEDYKSPVVTNCGHYFCGSCFAKDMKKGTKCFICHKETHGSAKVASDLQKMLNKRKS
With B1, in test [1], the binding entry is “binds”.

B2: His-Cwc24p (protein, UniProt P53769 1-259)
chain: B1 chain
On to B2, for which the binding entry in test [2] is given as “binds”.

Values taken from publication PMC3454408.
